Experimental data as given in patent US20060110594A1, “Polymer-coated substrates for binding biomolecules and methods of making and using thereof” (priority 2004, published 2006).
At least one compound was matched to its structure with a doubt left.

Protein sequences, listed by entry. Tags and fused reporters are not part of them. Residues count along the entry.
UniProt P22629, 25-183, species assumed: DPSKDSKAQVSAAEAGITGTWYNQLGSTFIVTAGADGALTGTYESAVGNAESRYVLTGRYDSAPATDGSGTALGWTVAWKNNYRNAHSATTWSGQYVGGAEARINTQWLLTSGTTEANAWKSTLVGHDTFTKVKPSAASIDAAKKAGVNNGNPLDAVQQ

Molecular target: streptavidin (Streptomyces avidinii, UniProt P22629)
Test: Small molecule binding to streptavidin immobilized on EMA, Corning LID
Settings: EMA coated LID microplate; Fl-biotin 100 nM in PBS; relative to negative control well
Procedure: Streptavidin was immobilized on an EMA coated LID microplate by incubating the wells with a solution of 25 ug/mL of the protein in an acetate buffer (20 mM, pH 5.5) for 15 minutes. As negative controls, additional wells were blocked with ethanolamine. The binding of the small molecule fluorescein-biotin (“Fl-biotin”, 831 Da) was monitored as a function of time in the LID instrument. A 100 nM solution of Fl-biotin in PBS was introduced into each well and allowed to bind for several minutes. […] The data have been corrected for bulk index of refraction effects by subtracting out the response from the negative control well. […] This experiment was repeated in each column of the plate with similar results.

O=C(CCCCCNC(=O)CCCC[C@@H]1SC[C@@H]2NC(=O)N[C@@H]21)NCCCCCNC(=S)Nc1ccc2c(c1)C(=O)OC21c2ccc(O)cc2Oc2cc(O)ccc21 [fluorescein-biotin]
response for binding to immobilized streptavidin: 48 pm+/− 2
